Test results from the supplement of paper PMC4604168 (melanoma cell lines).
This is one part of the list. Repeats are few or missing, and single values can be far off.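 The apoptosis fraction was the count of cleaved-PARP antibody-stained nuclei relative to all DNA-stained nuclei, imaged in 1,536-well plates. Screening doses were set so most cells survived, and baseline and induced cleaved-PARP levels vary greatly across cell lines.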

Legend:
Experiment in all cases: cleaved PARP positive nuclei fraction relative to DMSO control; melanoma cells; higher = more apoptosis
Details in all cases: library dose: low library concentration; 72 h
MZ2-MEL = system: MZ2-MEL
MeWo = system: MeWo
RPMI7951 = system: RPMI7951
RVH-421 = system: RVH-421
SkMel28 = system: SkMel28
SkMel2 = system: SkMel2
SkMel30 = system: SkMel30
UACC62 = system: UACC62
WM115 = system: WM115
WM1716 = system: WM1716
WM1745 = system: WM1745
WM3526 = system: WM3526
WM3619 = system: WM3619
WM451Lu = system: WM451Lu
SkMel5 = system: SkMel5
UACC257 = system: UACC257

| Structure (SMILES) | cleaved PARP positive nuclei fraction (MZ2-MEL) [%] | cleaved PARP positive nuclei fraction (MeWo) [%] | cleaved PARP positive nuclei fraction (RPMI7951) [%] | cleaved PARP positive nuclei fraction (RVH-421) [%] | cleaved PARP positive nuclei fraction (SkMel28) [%] | cleaved PARP positive nuclei fraction (SkMel2) [%] | cleaved PARP positive nuclei fraction (SkMel30) [%] | cleaved PARP positive nuclei fraction (UACC62) [%] | cleaved PARP positive nuclei fraction (WM115) [%] | cleaved PARP positive nuclei fraction (WM1716) [%] | cleaved PARP positive nuclei fraction (WM1745) [%] | cleaved PARP positive nuclei fraction (WM3526) [%] | cleaved PARP positive nuclei fraction (WM3619) [%] | cleaved PARP positive nuclei fraction (WM451Lu) [%] | cleaved PARP positive nuclei fraction (SkMel5) [%] | cleaved PARP positive nuclei fraction (UACC257) [%] |
| --- | --- | --- | --- | --- | --- | --- | --- | --- | --- | --- | --- | --- | --- | --- | --- | --- |
| CCN(CC)CCNC(=O)c1c(C)[nH]c(/C=C2\C(=O)Nc3ccc(F)cc32)c1C [sunitinib] + CCCCCCCCc1ccc(CCC(N)(CO)CO)cc1 [fingolimod] (first compound 0.4 µM, partner dose 2 µM) | 128 | 108 | 171 | 91.7 | 99.6 | 27.7 | 49 | 58.1 | 145 | 57.8 | 153 | 133 | 92.1 | 42.7 | – | – |
| COc1ccc(C2=N[C@@H](c3ccc(Cl)cc3)[C@@H](c3ccc(Cl)cc3)N2C(=O)N2CCNC(=O)C2)c(OC(C)C)c1 [Nutlin-3] + NCC(=O)Nc1ccc(-n2nc(C(F)(F)F)cc2-c2ccc3c(ccc4ccccc43)c2)cc1 [OSU03012] (first compound 0.1 µM, partner dose 1 µM) | 106 | 173 | 152 | 56.4 | 167 | 195 | 292 | 92.5 | 110 | 82.2 | 193 | 54.5 | 85.8 | 218 | 193 | 88.2 |
| COc1ccc(C2=N[C@@H](c3ccc(Cl)cc3)[C@@H](c3ccc(Cl)cc3)N2C(=O)N2CCNC(=O)C2)c(OC(C)C)c1 [Nutlin-3] + N#Cc1c(O)c2c(-c3ccc(-c4ccccc4O)cc3)csc2[nH]c1=O [A769662] (first compound 0.1 µM, partner dose 2 µM) | 99.2 | 103 | 275 | 145 | 51.1 | 105 | 40 | 105 | 146 | 85.5 | 96.8 | 70.3 | 70.5 | 138 | 217 | 95.7 |
| Cn1sc(=O)n(Cc2ccccc2)c1=O + Nc1nc(F)nc2c1ncn2[C@@H]1O[C@H](CO)[C@@H](O)[C@@H]1O [fludarabine] (first compound 0.4 µM, partner dose 0.2 µM) | 99.9 | 390 | 111 | 86.7 | 69 | 335 | 724 | 115 | 210 | 47 | 80.2 | 350 | 105 | 192 | – | – |
| Cn1sc(=O)n(Cc2ccccc2)c1=O + COc1ccc(C2=N[C@@H](c3ccc(Cl)cc3)[C@@H](c3ccc(Cl)cc3)N2C(=O)N2CCNC(=O)C2)c(OC(C)C)c1 [Nutlin-3] (first compound 0.4 µM, partner dose 0.1 µM) | 119 | 116 | 43 | 242 | 81 | 99.3 | 39.2 | 103 | 108 | 46.2 | 117 | 165 | 93.6 | 34.2 | – | – |
| C[C@@H](N)c1ccc(C(=O)Nc2ccnc3[nH]ccc23)cc1 + CC(C)(C)c1cnc(CSc2cnc(NC(=O)C3CCNCC3)s2)o1 [SNS-032] (first compound 0.4 µM, partner dose 0.01 µM) | 387 | 164 | 99.5 | 152 | 220 | 139 | 69.3 | 210 | 152 | 246 | 125 | 78.2 | 201 | 66.3 | 23.9 | 210 |
| CCCCCCCCc1ccc(CCC(N)(CO)CO)cc1 [fingolimod] + C=C(c1ccc(C(=O)O)cc1)c1cc2c(cc1C)C(C)(C)CCC2(C)C [Bexarotene] (first compound 2 µM, partner dose 2 µM) | 106 | 49.4 | 92.3 | 98.6 | 285 | 37.2 | 37.6 | 220 | 54.6 | 119 | 99.2 | 271 | 104 | 91.5 | – | – |
| NC(=O)c1ccc(N(C(N)=O)c2c(F)cccc2F)nc1-c1ccc(F)cc1F + O=C(Nc1ccccc1)c1cc([N+](=O)[O-])ccc1Cl [GW9662] (first compound 0.4 µM, partner dose 2 µM) | 175 | 65.1 | 146 | 75.5 | 37.6 | 67.5 | 240 | 153 | 160 | 47.6 | 113 | 203 | 128 | 156 | 97.5 | 96.9 |
| CC(=O)O[C@@]12CO[C@@H]1C[C@H](O)[C@@]1(C)C(=O)[C@H](O)C3=C(C)[C@@H](OC(=O)[C@H](O)[C@@H](NC(=O)OC(C)(C)C)c4ccccc4)C[C@@](O)([C@@H](OC(=O)c4ccccc4)[C@H]21)C3(C)C [Docetaxel] + COc1ccc(Cl)c(Nc2nc3ccccc3nc2NS(=O)(=O)c2cccc(NC(=O)C(C)(C)N)c2)c1 [XL147] (first compound 0.0001 µM, partner dose 0.8 µM) | 373 | 556 | 178 | 578 | 271 | 732 | 248 | 474 | 275 | 173 | 151 | 261 | 271 | 78.4 | – | – |
| C[C@@H](N)c1ccc(C(=O)Nc2ccnc3[nH]ccc23)cc1 + O=C(Nc1cccc(Cl)c1)Nc1ncc(CCNc2ncnc3ccsc23)s1 [SNS314] (first compound 0.4 µM, partner dose 0.0008 µM) | 249 | 250 | 163 | 86.3 | 52.8 | 69.7 | 58.9 | 107 | 548 | 124 | 116 | 55.1 | 88.4 | 53.1 | 110 | 189 |
| CC1(C)CCC(c2ccc(Cl)cc2)=C(CN2CCN(c3ccc(C(=O)NS(=O)(=O)c4ccc(N[C@H](CCN5CCOCC5)CSc5ccccc5)c(S(=O)(=O)C(F)(F)F)c4)cc3)CC2)C1 + O=C(O)[C@@H]1[O][Sb](=[O])([O][Sb]2(=[O])[O][C@H]([C@H](O)CO)[C@H](O)[C@H](C(=O)O)[O]2)[O][C@H]([C@H](O)CO)[C@@H]1O [stibogluconate] (first compound 0.4 µM, partner dose 2 µM) | 308 | 226 | 182 | 62.4 | 74.1 | 120 | 201 | 122 | 479 | 491 | 926 | 95.6 | 127 | 105 | – | – |
| CCCCCCCCc1ccc(CCC(N)(CO)CO)cc1 [fingolimod] + C=CCNC1=C2C[C@@H](C)C[C@H](OC)[C@H](O)[C@@H](C)/C=C(\C)[C@H](OC(N)=O)[C@@H](OC)/C=C\C=C(/C)C(=O)NC(=CC1=O)C2=O [Tanespimycin] (first compound 2 µM, partner dose 0.002 µM) | 189 | 65 | 60.6 | 83.7 | 83.3 | 139 | 118 | 80.7 | 51.3 | 126 | 145 | 307 | 133 | 79 | – | – |
| NC(=O)c1ccc(N(C(N)=O)c2c(F)cccc2F)nc1-c1ccc(F)cc1F + COc1ccc(COc2ccc(Cc3cnc(N)nc3N)cc2OC)cc1 [GW2580] (first compound 0.4 µM, partner dose 1 µM) | 174 | 83.8 | 33.4 | 146 | 106 | 112 | 67.8 | 968 | 345 | 391 | 94.6 | 83.9 | 2100 | 34.8 | 359 | 52.1 |
| CCN(CC)CCNC(=O)c1c(C)[nH]c(/C=C2\C(=O)Nc3ccc(F)cc32)c1C [sunitinib] + CC(=O)c1c(C)c2cnc(Nc3ccc(N4CCNCC4)cn3)nc2n(C2CCCC2)c1=O [palbociclib] (first compound 0.4 µM, partner dose 0.04 µM) | 53.8 | 109 | 85.6 | 129 | 49.4 | 78.5 | 49.1 | 361 | 76.2 | 71 | 131 | 107 | 90 | 53.7 | – | – |
| CCN(CC)CCNC(=O)c1c(C)[nH]c(/C=C2\C(=O)Nc3ccc(F)cc32)c1C [sunitinib] + C[C@@H](Oc1cc(-c2cnn(C3CCNCC3)c2)cnc1N)c1c(Cl)ccc(F)c1Cl [Crizotinib] (first compound 0.4 µM, partner dose 0.2 µM) | 126 | 37.2 | 230 | 100 | 81.4 | 116 | 129 | 406 | 37.2 | 52.4 | 114 | 63.9 | 55 | 291 | – | – |
| CCN(CC)CCNC(=O)c1c(C)[nH]c(/C=C2\C(=O)Nc3ccc(F)cc32)c1C [sunitinib] + CN(c1ncccc1CNc1nc(Nc2ccc3c(c2)CC(=O)N3)ncc1C(F)(F)F)S(C)(=O)=O [PF562271] (first compound 0.4 µM, partner dose 0.08 µM) | 106 | 58.9 | 38.9 | 271 | 44 | 63.3 | 56.3 | 230 | 153 | 107 | 146 | 39.5 | 77.9 | 65.6 | – | – |
| CS(=O)(=O)c1ccc(C(=O)Nc2ccc(Cl)c(-c3ccccn3)c2)c(Cl)c1 [vismodegib] + Cn1c(Nc2ccc(C(F)(F)F)cc2)nc2cc(Oc3ccnc(-c4ncc(C(F)(F)F)[nH]4)c3)ccc21 [CHIR265] (first compound 1 µM, partner dose 0.08 µM) | 113 | 234 | 213 | 102 | 122 | 260 | 42.8 | 152 | 264 | 132 | 104 | 51.7 | 131 | 39.1 | – | – |
| CN(c1ncccc1CNc1nc(Nc2ccc3c(c2)CC(=O)N3)ncc1C(F)(F)F)S(C)(=O)=O + C[C@]1(c2nc3c(C(N)=O)cccc3[nH]2)CCCN1 [Veliparib] (first compound 0.08 µM, partner dose 1.4 µM) | 23.9 | 148 | 101 | 61.3 | 67.2 | 113 | 27 | 98.3 | 201 | 56.9 | 112 | 42.4 | 87.9 | 118 | – | – |

Exported with bars between the fields: entries from further up.
Structure (SMILES) | cleaved PARP positive nuclei fraction (MZ2-MEL) [%] | cleaved PARP positive nuclei fraction (MeWo) [%] | cleaved PARP positive nuclei fraction (RPMI7951) [%] | cleaved PARP positive nuclei fraction (RVH-421) [%] | cleaved PARP positive nuclei fraction (SkMel28) [%] | cleaved PARP positive nuclei fraction (SkMel2) [%] | cleaved PARP positive nuclei fraction (SkMel30) [%] | cleaved PARP positive nuclei fraction (UACC62) [%] | cleaved PARP positive nuclei fraction (WM115) [%] | cleaved PARP positive nuclei fraction (WM1716) [%] | cleaved PARP positive nuclei fraction (WM1745) [%] | cleaved PARP positive nuclei fraction (WM3526) [%] | cleaved PARP positive nuclei fraction (WM3619) [%] | cleaved PARP positive nuclei fraction (WM451Lu) [%] | cleaved PARP positive nuclei fraction (SkMel5) [%] | cleaved PARP positive nuclei fraction (UACC257) [%]
COc1ccc(C2=N[C@@H](c3ccc(Cl)cc3)[C@@H](c3ccc(Cl)cc3)N2C(=O)N2CCNC(=O)C2)c(OC(C)C)c1 [Nutlin-3] + NCC(=O)Nc1ccc(-n2nc(C(F)(F)F)cc2-c2ccc3c(ccc4ccccc43)c2)cc1 [OSU03012] (first compound 0.1 µM, partner dose 1 µM) | 106 | 173 | 152 | 56.4 | 167 | 195 | 292 | 92.5 | 110 | 82.2 | 193 | 54.5 | 85.8 | 218 | 193 | 88.2
COc1ccc(C2=N[C@@H](c3ccc(Cl)cc3)[C@@H](c3ccc(Cl)cc3)N2C(=O)N2CCNC(=O)C2)c(OC(C)C)c1 [Nutlin-3] + N#Cc1c(O)c2c(-c3ccc(-c4ccccc4O)cc3)csc2[nH]c1=O [A769662] (first compound 0.1 µM, partner dose 2 µM) | 99.2 | 103 | 275 | 145 | 51.1 | 105 | 40 | 105 | 146 | 85.5 | 96.8 | 70.3 | 70.5 | 138 | 217 | 95.7
Cn1sc(=O)n(Cc2ccccc2)c1=O + Nc1nc(F)nc2c1ncn2[C@@H]1O[C@H](CO)[C@@H](O)[C@@H]1O [fludarabine] (first compound 0.4 µM, partner dose 0.2 µM) | 99.9 | 390 | 111 | 86.7 | 69 | 335 | 724 | 115 | 210 | 47 | 80.2 | 350 | 105 | 192 | – | –
